# In all, about 320,000 compounds went through this assay and about 2,100 (0.66%) were called active. Inconclusive means that the source gave no clear call. Such entries were picked first, then a sample of the others. Calls come from the whole dose curve; as a rule, active = well fitted inhibition curve with a large enough effect in the signal ratio, with a control signal flat (not every such curve was filed as active); inconclusive = small, poorly fitted or top-dose-only effect, or effect the other way, or a change in a side signal; inactive = flat fitted curve, though single readings scatter; the % refers to the signal ratio. Potencies beside an inconclusive call are fits to weak or partial responses and may not hold up.
# Assay: qHTS Assay for Lipid Storage Modulators in Drosophila S3 Cells
# Details: BODIPY lipid droplet fluorescence, 18-24 h, cells fed with added oleic acid; lipid storage change, negative = inhibition: at 46.1 µM (top of the series) unless noted
# Procedure, shortened: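 Laser-scanning cytometry quantifies lipid droplet accumulation (500–530 nm total intensity; droplet/cell object ratio) in oleic acid-fed (400 uM added) Drosophila S3 cells treated with a concentration series. 20 uM Triacsin C defined 100% inhibition.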
# % is set by controls: 0 for no effect and ±100 for the full control effect; potency is the fitted concentration of half-maximal effect.
SMILES,"lipid storage change, negative = inhibition",Potency
Cc1ccc(C(=O)Cn2nnc(-c3ccccc3)n2)cc1,inconclusive: 24.6%,
CC(C)(C)c1ccc(/C=C/C(=O)N2CCCCC2)cc1,inconclusive: -7.81%,
CCCCOc1ccccc1N1CCN(CCCN2C(=O)C3CCCN3C2=O)CC1 (stereo unspecified),,"inconclusive: 29.1 µM [falling, single point]"
Cc1ncc([N+](=O)[O-])n1CC(=O)Nc1ccccc1F,inconclusive: -20.5%,
CCOC(=O)c1c(C)[nH]c(C2=NNC(=Nc3cccc(Cl)c3)SC2)c1C,,"inconclusive: 0.291 µM [falling, full curve]"
O=C(CCC(=O)Nc1ccccc1Cl)NNC(=O)c1ccco1,inactive,
N#CCSc1nnc(COc2cccc3ccccc23)n1-c1ccccc1,inconclusive: -1.26%,
COC(=O)CSc1nc(-c2cccs2)ccc1C#N,inconclusive: 96.1%,
Cc1cc(C)c(S(=O)(=O)Nc2nnc(CC(C)C)s2)c(C)c1,inactive,
CC(C)NC(=S)NC(=O)c1ccc(Cl)cc1Cl,,"inconclusive: 0.517 µM [activator, partial curve, poor fit]"
CN(CC(=O)Nc1ccccc1Cl)C(=O)CSc1nncn1C,inconclusive: -10.5%,
Cn1cc([C@@H]2C[C@H]3CN(C4CCCC4)C(=O)[C@]34CCCN24)c(-c2ccccc2)n1,,"inconclusive: 8.2 µM [cytotoxic, partial curve]"
O=C1CN(C(=O)/C=C/c2ccc(Cl)cc2Cl)CCN1,,"inconclusive: 0.651 µM [falling, single point]"
CN1CCc2nc(SCCOc3ccccc3)c(C#N)cc2C1,,"inconclusive: 6.51 µM [rising, single point]"
COc1ccc2cc(C(=O)C3CCCN(Cc4ccccn4)C3)ccc2c1 (stereo unspecified),inconclusive: 28%,
COc1cc([C@H]2[C@@H]3CCCC[C@]3(O)CCN2CC(=O)Nc2ccc(C)cc2C)ccc1O,,"inconclusive: 2.59 µM [activator, full curve]"
S=C(NCCc1ccccc1)N/N=C/c1ccc(Cl)cc1,inconclusive: 17%,
O=C(CNc1ccccc1)Nc1ccc(F)cc1,,"inconclusive: 32.6 µM [activator, single point]"
CC(C)(C)NC(=O)C(c1ccc(F)cc1)N(CCc1ccccc1)C(=O)c1ccn[nH]1 (stereo unspecified),inconclusive: -36.3%,
Cc1ccc(-c2c(C(=O)N/N=C/c3c[nH]c4ccccc34)nnn2-c2nonc2N)cc1,,active: 14.6 µM
CC(=O)N1CCCc2cc(S(=O)(=O)N3CCCC(C(=O)Nc4ccccc4C)C3)ccc21 (stereo unspecified),,"inconclusive: 1.64 µM [activator, full curve]"
Cc1cc(S(=O)(=O)NC(C)C)ccc1OCC(=O)Nc1ccc2c(c1)OCCO2,inconclusive: -9.71%,
Cc1cccc(-c2c3c(=O)n(C)c(=O)n(C)c3cn2-c2ccccc2O)c1,inconclusive: 58.1%,
S=C(Nc1cccnc1)Nc1ccccc1Br,inconclusive: 116%,
CO/N=C(\C)C(Cc1ccc(Cl)nc1)Cc1ccc(Cl)nc1,,"inconclusive: 7.31 µM [activator, partial curve]"
COc1cc2c(cc1OC)C(c1ccccc1)N(C(=O)c1ccccc1)CC2 (stereo unspecified),inconclusive: 81.4%,

# Looked up above:
# `COc1cc2c(cc1OC)C(c1ccccc1)N(C(=O)c1ccccc1)CC2` (stereo unspecified) – lipid storage change, negative = inhibition: inconclusive: 81.4%
# `CC(C)(C)NC(=O)C(c1ccc(F)cc1)N(CCc1ccccc1)C(=O)c1ccn[nH]1` (stereo unspecified) – lipid storage change, negative = inhibition: inconclusive: -36.3%
# `O=C1CN(C(=O)/C=C/c2ccc(Cl)cc2Cl)CCN1` – Potency: inconclusive: 0.651 µM [falling, single point]
# `CN1CCc2nc(SCCOc3ccccc3)c(C#N)cc2C1` – Potency: inconclusive: 6.51 µM [rising, single point]
# `CC(C)NC(=S)NC(=O)c1ccc(Cl)cc1Cl` – Potency: inconclusive: 0.517 µM [activator, partial curve, poor fit]

# Going on with the list.

SMILES,"lipid storage change, negative = inhibition",Potency
O=C(Nc1ccc(NC(=O)C2CCCCC2)nc1)c1cccs1,inconclusive: -26.8%,
C=C(C)CCOC(=O)C(CC(=O)O)NCc1ccco1 (stereo unspecified),inconclusive: -9.8%,
O=C(NC1CCN(Cc2ccccc2)CC1)c1cn(-c2ccccc2)nc1-c1cccnc1,inconclusive: -1.74%,
C=C[C@@H]1c2c(F)cccc2N(S(=O)(=O)c2ccc(C)cc2)[C@H](c2ccc(C(=O)OC)cc2)C1(C#N)C#N,inconclusive: 18.1%,
Cc1oc(-c2ccc(Cl)cc2)nc1CN1CCCC(C(=O)N2CCOCC2)C1 (stereo unspecified),inconclusive: -31.4%,
CN(C)c1ccc(C2CC(=O)NC3=C2C(=O)CC(C)(C)C3)cc1 (stereo unspecified),inconclusive: -24%,
CSc1cccc(NS(=O)(=O)c2ccc3c(c2)NC(=O)C(C)C(=O)N3)c1 (stereo unspecified),inconclusive: 28%,
CCOc1cc(C)ccc1OCc1nnc(SCC(=O)Nc2cccc(C(=O)O)c2)n1-c1ccccc1,,"inconclusive: 20.6 µM [activator, single point]"
O=C(NNS(=O)(=O)c1ccc(F)cc1)C1CCN(Cc2cccc(F)c2)CC1,inconclusive: 7.18%,
COC(=O)c1c(NC(=O)COC(=O)CCNS(=O)(=O)c2ccccc2)sc(C)c1C,inconclusive: -17.7%,
CCN(CC(=O)Nc1ccccc1C(=O)Nc1ccccc1)Cc1nc2ccccc2c(=O)[nH]1,inconclusive: -16.6%,
CCc1ccccc1NC(=O)Nc1cccn(Cc2ccccc2F)c1=O,inconclusive: 20.4%,
CCCN(CC(=O)Nc1ccccc1OC)C(=O)c1ccc(COc2ccccc2)o1,inconclusive: -11.2%,
CC1CCN(c2ccc3c(c2)S(=O)(=O)c2cccc(C(=O)NC4CCCCC4)c2C3=O)CC1,,"inconclusive: 20.6 µM [falling, single point]"
CCn1c(COc2ccc3ccccc3c2C)nnc1SCC(=O)Nc1cccc(C(=O)O)c1,inconclusive: 16.8%,
C#CCOc1ccc(/C=C2/C(=O)ON=C2C)cc1Cl,,"inconclusive: 29.1 µM [falling, single point]"
O=C(O)C1CSC2(c3ccc(Br)cc3)CCC(=O)N12 (stereo unspecified),,"inconclusive: 5.8 µM [activator, single point]"
CN1CCN(C(=O)/C(=C/c2ccc(N(C)C)cc2)NC(=O)c2ccccc2)CC1,inconclusive: -146%,
CCC1CCCCN1C(=S)NC(=O)c1ccc(F)c(S(=O)(=O)N2CCOCC2)c1 (stereo unspecified),inconclusive: 12.5% [at 9.22 µM],
Cc1ccc(N2C(=O)CC(n3nc(C)cc3C)C2=O)cc1 (stereo unspecified),,"inconclusive: 0.0052 µM [falling, full curve, poor fit]"
O=C(Nc1ccccn1)Nc1ccccc1[N+](=O)[O-],,"inconclusive: 6.51 µM [falling, single point]"
Cn1nc(-c2ccc(C(=O)Nc3ccc(F)cc3)cc2)c2ccccc2c1=O,inconclusive: -90.8%,
O=C(c1coc(=O)c2ccccc12)N1CCN(Cc2ccccc2)CC1,inconclusive: 13.6%,
Cc1cc(OCC(=O)OCC(=O)NCC2CCCO2)ccc1Cl (stereo unspecified),inconclusive: 4.71%,
CCN(CC)C(=O)CSc1nnc([C@H](CCSC)NC(=O)OC(C)(C)C)o1,inconclusive: 11.1%,
Cc1cccc(NS(=O)(=O)c2ccc(NC(=O)CN(c3cc([N+](=O)[O-])ccc3C)S(C)(=O)=O)cc2)c1,,"inconclusive: 29.1 µM [cytotoxic, single point]"

SMILES,"lipid storage change, negative = inhibition",Potency
NC(N)=N/N=C/c1ccc(OCc2ccc(Cl)cc2Cl)cc1,,"inconclusive: 18.4 µM [cytotoxic, partial curve]"
COc1ccc(CC2CCOC2=O)cc1 (stereo unspecified),inconclusive: -28.2%,
COc1ccc(C2=CC(=O)CC(c3ccc(OC)cc3)C2)cc1 (stereo unspecified),inconclusive: 89.6%,
Cc1[nH]c2ccc(C(=O)NCCCN3CCOCC3)cc2c1C,inconclusive: 57%,
O=C(CN1C(=O)c2cccc3cccc1c23)N1CCN(c2ccccc2)CC1,inconclusive: 22.8%,
Cn1c(=O)c2cn3c(c2n(C)c1=O)C(c1ccccc1)CC(c1ccccc1)=N3 (stereo unspecified),inconclusive: 4.46%,
Cc1cc(C)n(-c2ccc(F)cc2)c(=O)c1C#N,inconclusive: -17.7%,
CCOCCN1CCN(C(=O)CN2CCCC2=O)CC1,inconclusive: -9.01%,
CCOC(=O)C(C)Oc1cccc2c(=O)n(CC(=O)NCc3ccc(F)cc3)ccc12 (stereo unspecified),inconclusive: 4.12%,
O=C1CCN(CCc2ccccc2)CCN1[C@H](CO)Cc1ccccc1,inconclusive: -26.4%,
S=C(NCc1ccco1)Nc1ccc(Oc2ccccc2)cc1,inconclusive: 5.31%,
Cc1cc2cc(CNS(=O)(=O)c3ccccc3)ccc2n1C,,"inconclusive: 0.0046 µM [activator, full curve, poor fit]"
COc1ccccc1C(=O)N(C)c1nnc(-c2ccccc2)s1,,"inconclusive: 20.6 µM [activator, single point]"
COc1cccc(/C=C2/SC(=S)N(CC(=O)NNC(=O)c3ccccc3OC)C2=O)c1,,"inconclusive: 29.1 µM [activator, single point]"
CCOc1ccc(-c2cc(N)n(S(=O)(=O)c3cccc4nsnc34)n2)cc1,,"inconclusive: 0.731 µM [activator, single point]"
COc1ccccc1C(=O)CSc1n[nH]c(N)n1,,"inconclusive: 6.51 µM [falling, partial curve]"
COc1ccc(-c2cc(C)no2)cc1S(=O)(=O)N1CCCN(Cc2ccccc2Cl)C1,,"inconclusive: 9.2 µM [falling, partial curve]"
COc1ccc(NC(=O)CSc2nc3c(c(=O)n2-c2ccc(C)cc2)SCC3)c(OC)c1,inconclusive: 15.2%,
COc1ccc(/C=N/NC(=O)c2cccc([N+](=O)[O-])c2)c2ccccc12,inconclusive: -114%,
CC1CCCCC1NC(=O)c1ccncc1 (stereo unspecified),inconclusive: 11.1%,
COc1ccc2c(c1)C1=NN(/C(C)=C\C(C)=O)C(c3ccccc3)C1CC2 (stereo unspecified),inactive,
COc1ccc(NS(=O)(=O)c2cc(C(=O)N3CCN(C/C=C/c4ccccc4)CC3)ccc2C)cc1,inconclusive: -2.53% [at 0.0737 µM],
COc1ccc(N2C(N)=C(C#N)C(c3ccsc3)C3=C2CCCC3=O)c(OC)c1 (stereo unspecified),inconclusive: 12.5%,
Cc1cc(=O)n2nc(N3CCC(C(=O)NC4CCCc5ccccc54)CC3)sc2n1 (stereo unspecified),inconclusive: 17.8%,

# Source: PubChem BioAssay AID2685 (National Center for Advancing Translational Sciences (NCATS), 2010)
